Assay results as given in publication PMC10093842.
Results are given in words; binding and its absence hold for the method and conditions named. In cells and extracts the contact can be indirect. Some binding calls cover weakened binding; strength is not graded here. Where a sequence is shown, tags or fusion partners need not be part of it.

Protein sequences, listed by entry. Tags and fused reporters are not part of them.
UniProt Q12905: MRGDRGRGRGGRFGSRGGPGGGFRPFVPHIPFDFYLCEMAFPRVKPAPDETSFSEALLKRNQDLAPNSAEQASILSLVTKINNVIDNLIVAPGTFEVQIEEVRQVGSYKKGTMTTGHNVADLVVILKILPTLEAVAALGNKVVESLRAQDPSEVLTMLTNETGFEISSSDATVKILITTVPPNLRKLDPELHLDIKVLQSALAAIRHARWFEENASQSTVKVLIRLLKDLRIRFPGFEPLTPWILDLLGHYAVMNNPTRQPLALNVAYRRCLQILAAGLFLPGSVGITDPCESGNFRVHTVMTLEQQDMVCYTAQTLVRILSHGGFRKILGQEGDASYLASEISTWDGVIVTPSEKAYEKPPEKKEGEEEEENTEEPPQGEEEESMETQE

Molecular target: T1, Flag-tagged NUSAP1 full-length (nucleolar and spindle-associated protein 1) (human) (UniProt Q9BXS6)
T1 sequence: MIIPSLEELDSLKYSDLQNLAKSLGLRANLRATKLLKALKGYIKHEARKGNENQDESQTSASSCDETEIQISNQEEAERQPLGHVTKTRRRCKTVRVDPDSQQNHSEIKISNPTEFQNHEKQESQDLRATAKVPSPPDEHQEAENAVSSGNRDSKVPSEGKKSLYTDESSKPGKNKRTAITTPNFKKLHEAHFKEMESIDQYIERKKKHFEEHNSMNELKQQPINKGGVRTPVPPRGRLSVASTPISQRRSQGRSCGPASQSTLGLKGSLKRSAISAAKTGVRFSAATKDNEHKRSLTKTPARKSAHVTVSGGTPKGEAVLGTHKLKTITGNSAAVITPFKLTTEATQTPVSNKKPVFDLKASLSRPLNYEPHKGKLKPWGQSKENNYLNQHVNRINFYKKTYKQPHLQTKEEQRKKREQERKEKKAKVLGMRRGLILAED
Assay: co-IP; extracts of LNCaP (and DU145) cells transfected with Flag-NUSAP1 (FL, ΔMT or ΔChHD) or empty vector, collected as for AP-MS; Ezview red Flag M2 affinity gel 4 h at 4 °C; elution with Flag peptide; western blot of endogenous partners

ILF2 (from UniProt Q12905 1-390)
binding: binds
